From patent US20240352134A1

Tests used:
dog CCR8 (dog) [1] = assay: species cross reactivity, comparison of Table 12
dog CCR8 (dog) [2] = assay: flow cytometry on CCR8-overexpressing cells
dog CCR8 (dog) [3] = assay: FACS binding analysis (FIG. 4C)

Measured: binding

B1: 3F11hz4 (antibody, V domains shown)
VH: EVQLVESGGGLVQPGGSLKLSCAASGFSFNTYAMNWVRQASGKGLEWVGRIRSKSNYYATYYAASVKGRFTISRDDSKSTLYLQMNSLKTEDTAVYYCVRGRELGDYYAMDYWGQGTLVTVSS
VL: DIVMTQSPLSLPVTPGEPASISCRSSKSLLHSNGNTYLYWFLQKPGQSPQLLIYRMSNLASGVPDRFSGSGSGTDFTLKISRVEAEDVGVYYCMQHLEYPFTFGQGTKLEIK
binds: all assays above

These are yes or no findings as the source states them, for the method shown. Binding can be weak; no strength is given.
